According to patent publication US9598361B1, “Amino substituted acetamide derivative” (KING SAUD UNIVERSITY, priority 2016, dated 2017):
At least one read-out could not be matched to a standard name with certainty.

System: absolute ethanol-induced ulcer
Assay: Anti-ulcerogenic activity, absolute ethanol-induced ulcer model
Type: in vivo, male Wistar rats
Details: Table 2; protection of control ulcer; oral, CP-1-7 50 mg/kg, ranitidine 100 mg/kg
Experimental: The biological activities of the investigational compounds (CP1-8) were investigated as follows. Swiss albino mice of both sexes (26-30 g) and male Wistar rats (180-200 g) were purchased from the animal house of King Saud University, KSA. Animals were housed in standard polypropylene cages with wire mesh top and maintained under standard conditions (temperature 23±1.0° C., humidity 55±10%, 12 h light/12 h dark cycle). They were fed a standard pellet diet with water ad libitum and were allowed to adapt to the laboratory environment for one week before experimentation.
Evaluation of the anti-ulcerogenic activity was carried out using absolute ethanol-induced ulcer model as described by Bighettia et al. (2005). […]
Number of lesions in the glandular part of the stomach were measured under an illuminated magnifying microscope (10×). Long lesions were counted and their lengths were measured. Petechial lesions were counted, and then each five petechial lesions were taken as 1 mm of ulcer.
The lesion scores in the mucosal lesions were quantified by the scoring system (0-5) 0=no damage, 1=Local edema and inflammation without ulcers; 2=One ulcer without inflammation; 3=one to two ulcers with inflammation & lesion diameter <1 cm; 4=More than two ulcers with lesion diameter 1-2 cm; 5=Sever ulceration with lesion diameter >2 cm (Morris et al., 1989). […]

## NS(=O)(=O)c1ccc(NC(=O)CN2CCC(c3ccc(Cl)cc3)CC2)cc1 [CP-3, 2-[4(4-Chlorophenyl)piperidinyl]-N-(4-aminosulphonylphenyl)acetamide]
  % protection: 90.8%
